Assay results as given in the supplement of paper PMC10849652.
The other results are listed elsewhere or left out.

Sequences of proteins named here, by UniProt entry; tags and fusion partners are left off. A change or cut given only in a name is not applied to a line headed by its entry.
UniProt O75165, whole entry, looked up: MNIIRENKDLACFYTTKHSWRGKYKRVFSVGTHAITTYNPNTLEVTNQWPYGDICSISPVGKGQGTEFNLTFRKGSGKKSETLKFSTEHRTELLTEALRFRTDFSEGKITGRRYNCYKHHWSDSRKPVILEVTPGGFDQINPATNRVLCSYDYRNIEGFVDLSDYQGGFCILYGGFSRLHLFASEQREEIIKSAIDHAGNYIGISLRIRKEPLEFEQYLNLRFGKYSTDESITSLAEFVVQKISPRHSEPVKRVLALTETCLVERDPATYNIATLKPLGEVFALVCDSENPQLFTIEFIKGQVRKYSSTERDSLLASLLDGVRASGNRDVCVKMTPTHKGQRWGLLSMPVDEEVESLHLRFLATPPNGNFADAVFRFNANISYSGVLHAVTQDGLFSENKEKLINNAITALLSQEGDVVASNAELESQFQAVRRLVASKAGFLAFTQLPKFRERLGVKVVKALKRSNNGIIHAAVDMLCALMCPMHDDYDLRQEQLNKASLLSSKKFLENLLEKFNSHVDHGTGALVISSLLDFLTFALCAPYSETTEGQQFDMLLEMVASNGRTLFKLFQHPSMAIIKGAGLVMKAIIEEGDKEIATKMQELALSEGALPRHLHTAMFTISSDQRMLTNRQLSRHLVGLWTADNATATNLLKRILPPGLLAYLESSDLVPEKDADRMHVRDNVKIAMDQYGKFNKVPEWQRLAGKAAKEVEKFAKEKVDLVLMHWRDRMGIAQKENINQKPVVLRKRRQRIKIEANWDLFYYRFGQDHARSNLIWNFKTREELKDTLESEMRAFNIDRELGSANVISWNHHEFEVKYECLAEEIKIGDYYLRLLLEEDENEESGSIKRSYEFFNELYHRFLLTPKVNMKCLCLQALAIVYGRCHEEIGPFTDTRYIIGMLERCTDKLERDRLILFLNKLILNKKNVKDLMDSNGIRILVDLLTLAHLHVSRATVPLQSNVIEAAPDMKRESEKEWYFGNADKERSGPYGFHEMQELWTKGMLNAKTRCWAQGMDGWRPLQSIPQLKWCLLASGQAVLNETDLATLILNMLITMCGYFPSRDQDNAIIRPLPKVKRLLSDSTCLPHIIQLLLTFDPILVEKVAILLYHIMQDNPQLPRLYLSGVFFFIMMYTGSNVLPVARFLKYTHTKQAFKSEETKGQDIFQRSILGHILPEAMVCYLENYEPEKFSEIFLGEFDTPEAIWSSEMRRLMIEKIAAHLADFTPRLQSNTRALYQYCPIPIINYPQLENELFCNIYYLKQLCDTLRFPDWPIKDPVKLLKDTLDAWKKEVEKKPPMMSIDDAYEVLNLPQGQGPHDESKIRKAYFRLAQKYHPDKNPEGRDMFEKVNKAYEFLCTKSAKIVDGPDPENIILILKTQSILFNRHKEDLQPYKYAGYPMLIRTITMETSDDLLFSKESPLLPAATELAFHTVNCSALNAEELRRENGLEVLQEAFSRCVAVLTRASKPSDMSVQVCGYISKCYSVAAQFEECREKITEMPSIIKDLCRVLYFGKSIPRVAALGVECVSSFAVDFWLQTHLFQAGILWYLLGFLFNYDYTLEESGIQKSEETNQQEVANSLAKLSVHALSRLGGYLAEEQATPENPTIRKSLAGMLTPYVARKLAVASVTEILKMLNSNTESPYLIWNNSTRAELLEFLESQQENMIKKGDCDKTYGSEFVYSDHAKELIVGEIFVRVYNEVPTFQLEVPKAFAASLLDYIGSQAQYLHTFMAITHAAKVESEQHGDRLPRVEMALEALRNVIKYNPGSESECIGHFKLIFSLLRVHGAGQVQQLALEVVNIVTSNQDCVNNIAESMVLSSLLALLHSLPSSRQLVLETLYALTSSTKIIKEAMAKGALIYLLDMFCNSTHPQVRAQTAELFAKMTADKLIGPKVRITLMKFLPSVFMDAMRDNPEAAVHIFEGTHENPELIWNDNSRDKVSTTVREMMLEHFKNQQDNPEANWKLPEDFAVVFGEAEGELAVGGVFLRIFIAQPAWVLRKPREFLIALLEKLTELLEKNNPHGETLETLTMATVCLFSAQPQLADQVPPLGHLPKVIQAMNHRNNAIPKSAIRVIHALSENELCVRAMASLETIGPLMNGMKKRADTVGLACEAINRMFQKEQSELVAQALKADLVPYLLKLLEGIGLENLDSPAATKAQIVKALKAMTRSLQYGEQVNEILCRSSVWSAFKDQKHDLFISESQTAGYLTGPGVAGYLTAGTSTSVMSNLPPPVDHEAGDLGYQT
UniProt P25685, whole entry, looked up: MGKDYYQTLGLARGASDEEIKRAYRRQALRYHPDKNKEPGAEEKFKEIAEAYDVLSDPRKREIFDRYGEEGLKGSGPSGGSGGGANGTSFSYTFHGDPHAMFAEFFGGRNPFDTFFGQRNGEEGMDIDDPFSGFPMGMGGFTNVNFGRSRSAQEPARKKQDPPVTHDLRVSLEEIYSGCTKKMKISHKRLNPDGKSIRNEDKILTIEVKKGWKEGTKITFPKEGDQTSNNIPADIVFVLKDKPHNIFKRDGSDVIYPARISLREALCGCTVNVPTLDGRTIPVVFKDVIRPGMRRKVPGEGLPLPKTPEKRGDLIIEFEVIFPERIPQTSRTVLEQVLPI
UniProt O60610, whole entry, looked up: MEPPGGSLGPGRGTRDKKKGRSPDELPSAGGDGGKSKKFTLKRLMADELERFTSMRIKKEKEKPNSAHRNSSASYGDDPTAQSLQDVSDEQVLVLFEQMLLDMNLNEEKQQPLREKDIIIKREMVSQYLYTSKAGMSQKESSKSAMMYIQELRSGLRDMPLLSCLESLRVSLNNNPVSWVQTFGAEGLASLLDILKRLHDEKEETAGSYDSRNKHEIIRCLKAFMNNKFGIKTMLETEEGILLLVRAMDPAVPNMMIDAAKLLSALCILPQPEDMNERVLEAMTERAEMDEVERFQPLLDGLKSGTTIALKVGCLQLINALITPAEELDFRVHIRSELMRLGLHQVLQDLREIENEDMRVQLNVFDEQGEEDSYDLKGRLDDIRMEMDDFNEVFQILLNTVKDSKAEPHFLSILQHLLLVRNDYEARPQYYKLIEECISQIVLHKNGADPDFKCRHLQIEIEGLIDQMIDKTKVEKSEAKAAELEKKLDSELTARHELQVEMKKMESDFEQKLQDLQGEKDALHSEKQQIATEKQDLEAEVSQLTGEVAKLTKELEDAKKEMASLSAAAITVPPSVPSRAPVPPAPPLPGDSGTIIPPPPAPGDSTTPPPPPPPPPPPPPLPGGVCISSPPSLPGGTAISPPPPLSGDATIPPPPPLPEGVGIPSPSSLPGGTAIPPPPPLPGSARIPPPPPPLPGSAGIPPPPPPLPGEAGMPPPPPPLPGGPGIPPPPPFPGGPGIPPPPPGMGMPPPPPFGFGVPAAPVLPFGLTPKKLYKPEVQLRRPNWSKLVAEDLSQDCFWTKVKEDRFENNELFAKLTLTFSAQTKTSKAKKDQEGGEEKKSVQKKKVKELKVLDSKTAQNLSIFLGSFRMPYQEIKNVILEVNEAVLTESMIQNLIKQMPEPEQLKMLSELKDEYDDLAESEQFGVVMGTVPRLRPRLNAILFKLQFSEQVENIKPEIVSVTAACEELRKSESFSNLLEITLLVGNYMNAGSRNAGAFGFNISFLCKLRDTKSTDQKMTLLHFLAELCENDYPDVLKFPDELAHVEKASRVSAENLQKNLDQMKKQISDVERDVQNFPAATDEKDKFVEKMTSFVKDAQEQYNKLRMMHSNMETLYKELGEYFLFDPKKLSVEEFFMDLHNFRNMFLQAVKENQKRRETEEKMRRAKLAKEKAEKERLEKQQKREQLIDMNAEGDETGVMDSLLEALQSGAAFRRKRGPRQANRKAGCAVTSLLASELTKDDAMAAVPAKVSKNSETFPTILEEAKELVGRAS
UniProt Q9UBS4: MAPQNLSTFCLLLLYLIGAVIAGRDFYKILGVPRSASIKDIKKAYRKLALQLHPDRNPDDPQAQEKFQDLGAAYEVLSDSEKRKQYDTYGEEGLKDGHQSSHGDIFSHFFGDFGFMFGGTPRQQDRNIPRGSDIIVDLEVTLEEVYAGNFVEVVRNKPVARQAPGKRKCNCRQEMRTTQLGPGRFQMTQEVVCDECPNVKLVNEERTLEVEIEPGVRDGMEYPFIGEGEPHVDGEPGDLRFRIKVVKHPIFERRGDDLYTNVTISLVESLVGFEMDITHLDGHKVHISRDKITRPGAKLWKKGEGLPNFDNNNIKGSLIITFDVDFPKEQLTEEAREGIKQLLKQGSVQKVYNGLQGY
UniProt Q6P158: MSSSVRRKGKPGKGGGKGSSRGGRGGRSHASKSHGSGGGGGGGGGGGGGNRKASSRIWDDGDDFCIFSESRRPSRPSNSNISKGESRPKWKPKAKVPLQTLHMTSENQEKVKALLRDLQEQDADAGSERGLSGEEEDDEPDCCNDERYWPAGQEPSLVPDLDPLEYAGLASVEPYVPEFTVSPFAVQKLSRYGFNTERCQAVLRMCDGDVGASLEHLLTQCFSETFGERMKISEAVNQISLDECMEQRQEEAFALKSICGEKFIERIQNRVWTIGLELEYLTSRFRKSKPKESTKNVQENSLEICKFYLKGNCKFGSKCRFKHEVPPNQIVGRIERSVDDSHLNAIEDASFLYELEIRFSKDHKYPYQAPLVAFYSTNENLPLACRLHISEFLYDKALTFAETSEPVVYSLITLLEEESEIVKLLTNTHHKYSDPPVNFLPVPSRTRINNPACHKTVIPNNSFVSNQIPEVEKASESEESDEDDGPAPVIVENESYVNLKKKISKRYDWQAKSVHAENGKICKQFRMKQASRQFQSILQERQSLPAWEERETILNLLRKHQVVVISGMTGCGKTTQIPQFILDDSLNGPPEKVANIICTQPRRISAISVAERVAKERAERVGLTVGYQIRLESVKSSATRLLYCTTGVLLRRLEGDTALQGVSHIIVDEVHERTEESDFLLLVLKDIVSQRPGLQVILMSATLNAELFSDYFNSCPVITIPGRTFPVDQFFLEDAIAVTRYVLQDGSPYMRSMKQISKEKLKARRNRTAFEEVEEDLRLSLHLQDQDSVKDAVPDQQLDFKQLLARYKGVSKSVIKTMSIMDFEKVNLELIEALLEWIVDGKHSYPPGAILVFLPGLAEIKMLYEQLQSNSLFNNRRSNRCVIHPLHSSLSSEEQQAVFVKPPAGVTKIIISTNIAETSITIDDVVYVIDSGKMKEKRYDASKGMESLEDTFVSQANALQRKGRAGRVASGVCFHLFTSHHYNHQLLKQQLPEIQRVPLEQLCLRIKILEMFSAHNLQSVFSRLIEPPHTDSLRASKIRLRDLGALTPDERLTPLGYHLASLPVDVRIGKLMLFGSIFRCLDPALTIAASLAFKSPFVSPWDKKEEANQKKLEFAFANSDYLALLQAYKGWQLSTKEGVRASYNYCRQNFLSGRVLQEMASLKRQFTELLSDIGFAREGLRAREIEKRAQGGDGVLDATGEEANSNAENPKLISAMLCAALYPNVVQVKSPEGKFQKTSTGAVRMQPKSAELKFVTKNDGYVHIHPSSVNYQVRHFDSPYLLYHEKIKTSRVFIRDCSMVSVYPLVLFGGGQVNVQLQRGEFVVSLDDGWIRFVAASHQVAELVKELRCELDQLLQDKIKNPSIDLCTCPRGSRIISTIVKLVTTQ

Legend:
Experiment in all cases: log2 fold change, soluble protein after heating vs DMSO (PISA); higher = thermal stabilisation; K562 lysate, 10 uM; active = over 0.2 and 3.5 SD of the protein, either way, in both replicates (recomputed)
lapatinib = compound: CS(=O)(=O)CCNCc1ccc(-c2ccc3ncnc(Nc4ccc(OCc5cccc(F)c5)c(Cl)c4)c3c2)o1 [lapatinib]
In short: (§1)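 Soluble protein was defined as the supernatant remaining after 21,000xg for 90 min, following pooling of heated aliquots and adjustment to 0.5% NP-40 at 4°C. Before that, crude K562 extract at 1 mg/mL protein in PBS pH 7.4 with 1 mM MgCl2 was treated with 10 μM compound for 30 min and heated for 3 min across 48°C-58°C. Quantification used TMTpro 16plex LC-MS/MS with channel sums equalised, and values are log-two fold changes in thermal stability relative to solvent controls from duplicates.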

pictilisib = compound: CS(=O)(=O)N1CCN(Cc2cc3nc(-c4cccc5[nH]ncc45)nc(N4CCOCC4)c3s2)CC1 [pictilisib]
In short: as §1

crizotinib = compound: C[C@@H](Oc1cc(-c2cnn(C3CCNCC3)c2)cnc1N)c1c(Cl)ccc(F)c1Cl [crizotinib]
In short: as §1

[1] = compound: C[C@H](C1=CC=C(C=C1)C(=O)NC2=C3C=CNC3=NC=C2)N
In short: as §1

duvelisib = compound: C[C@H](Nc1ncnc2nc[nH]c12)c1cc2cccc(Cl)c2c(=O)n1-c1ccccc1 [duvelisib]
In short: as §1

gandotinib = compound: Cc1cc(Nc2cc(CN3CCOCC3)c3nc(C)c(Cc4ccc(Cl)cc4F)n3n2)n[nH]1 [gandotinib]
In short: as §1

tozasertib = compound: Cc1cc(Nc2cc(N3CCN(C)CC3)nc(Sc3ccc(NC(=O)C4CC4)cc3)n2)n[nH]1 [tozasertib]
In short: as §1

doramapimod = compound: Cc1ccc(-n2nc(C(C)(C)C)cc2NC(=O)Nc2ccc(OCCN3CCOCC3)c3ccccc23)cc1 [doramapimod]
In short: as §1

bafetinib = compound: Cc1ccc(NC(=O)c2ccc(CN3CC[C@H](N(C)C)C3)c(C(F)(F)F)c2)cc1Nc1nccc(-c2cncnc2)n1 [bafetinib]
In short: as §1

[2] = compound: Cc1cccc(CC(=O)N2CCc3c2ccc(-c2cn(C)c4ncnc(N)c24)c3F)n1
In short: as §1

nilotinib = compound: Cc1cn(-c2cc(NC(=O)c3ccc(C)c(Nc4nccc(-c5cccnc5)n4)c3)cc(C(F)(F)F)c2)cn1 [nilotinib]
In short: as §1

[3] = compound: Cc1nc(Nc2n[nH]c3c2CN(C(=O)N[C@H](CN(C)C)c2ccccc2)C3(C)C)c2sccc2n1
In short: as §1

dasatinib = compound: Cc1nc(Nc2ncc(C(=O)Nc3c(C)cccc3Cl)s2)cc(N2CCN(CCO)CC2)n1 [dasatinib]
In short: as §1

[4] = compound: Cc1ncc(-c2ccnc(Nc3ccc(S(C)(=O)=O)cc3)n2)n1C(C)C
In short: as §1

[5] = compound: Cn1cc(-c2ccc3c(c2)CCN3C(=O)Cc2cccc(C(F)(F)F)c2)c2c(N)ncnc21
In short: as §1

quisinostat = compound: Cn1cc(CNCC2CCN(c3ncc(C(=O)NO)cn3)CC2)c2ccccc21 [quisinostat]
In short: as §1

tipifarnib = compound: Cn1cncc1[C@@](N)(c1ccc(Cl)cc1)c1ccc2c(c1)c(-c1cccc(Cl)c1)cc(=O)n2C [tipifarnib]
In short: as §1

[6] = compound: NC(=O)Nc1cc(-c2cccc(F)c2)sc1C(=O)N[C@H]1CCCNC1
In short: as §1

[7] = compound: NC(=O)c1cnc(N[C@@H]2CCCC[C@@H]2N)nc1Nc1cccc(-n2nccn2)c1
In short: as §1

[8] = compound: NC1(c2ccc(-c3nc4ccn5c(=O)[nH]nc5c4cc3-c3ccccc3)cc2)CCC1
In short: as §1

Measured: log2 fold change

DNAJC13 (UniProt O75165)
inactive: lapatinib 0.001 | pictilisib -0.023 | crizotinib -0.054 | [1] -0.067 | duvelisib 0.005 | gandotinib 0.007 | tozasertib 0.036 | doramapimod 0.005 | bafetinib -0.057 | [2] 0.068 | nilotinib -0.008 | [3] 0.004 | dasatinib -0.012 | [4] 0.027 | [5] 0.007 | quisinostat -0.047 | tipifarnib 0.021 | [6] 0.007 | [7] -0.004 | [8] -0.004

DNAJB1 (UniProt P25685)
inactive: lapatinib 0.018 | pictilisib 0.049 | crizotinib -0.004 | [1] -0.022 | duvelisib 0.001 | gandotinib 0.036 | tozasertib -0.015 | doramapimod 0.1 | bafetinib 0.009 | [2] 0.001 | nilotinib -0.008 | [3] 0.003 | dasatinib -0.047 | [4] -0.017 | [5] 0.004 | quisinostat 0.007 | tipifarnib -0.036 | [6] 0.003 | [7] 0.01 | [8] 0.013

DIAPH1 (UniProt O60610)
inactive: lapatinib -0.007 | pictilisib 0.014 | crizotinib 0.004 | [1] 0.06 | duvelisib -0.006 | gandotinib -0.063 | tozasertib 0.004 | doramapimod -0.003 | bafetinib -0.001 | [2] -0.021 | nilotinib -0.003 | [3] -0.009 | dasatinib -0.019 | [4] -0.009 | [5] 0.006 | quisinostat -0.006 | tipifarnib -0.006 | [6] -0.006 | [7] 0.002 | [8] 0.008

DHX29 (UniProt Q7Z478)
inactive: lapatinib -0.018 | pictilisib 0.016 | crizotinib 0.005 | [1] -0.033 | duvelisib -0.008 | gandotinib -0.041 | tozasertib 0.016 | doramapimod 0.028 | bafetinib -0.064 | [2] 0.022 | nilotinib -0.011 | [3] 0.027 | dasatinib 0.003 | [4] -0.01 | [5] 0.008 | quisinostat 0.019 | tipifarnib 0.02 | [6] -0.014 | [7] 0.013 | [8] -0.032

DNAJB11 (UniProt Q9UBS4)
inactive: lapatinib -0.017 | pictilisib 0.001 | crizotinib -0.007 | [1] -0.043 | duvelisib -0.003 | gandotinib 0.03 | tozasertib 0.001 | doramapimod 0.017 | bafetinib -0.013 | [2] 0.044 | nilotinib -0.012 | [3] 0.025 | dasatinib -0.003 | [4] -0.037 | [5] -0.014 | quisinostat -0.05 | tipifarnib -0.025 | [6] -0.014 | [7] -0.018 | [8] -0.026

DNPH1 (UniProt H0Y8X4)
inactive: lapatinib -0.009 | pictilisib -0.048 | crizotinib 0.005 | [1] -0.024 | duvelisib 0.012 | gandotinib 0.048 | tozasertib -0.037 | doramapimod 0.026 | bafetinib 0.083 | [2] -0.031 | nilotinib 0.014 | [3] 0.033 | dasatinib 0.035 | [4] -0.017 | [5] -0.031 | quisinostat 0.033 | tipifarnib 0.038 | [6] -0.018 | [7] -0.008 | [8] -0.012

DHX57 (UniProt Q6P158)
inactive: lapatinib -0.012 | pictilisib -0.006 | crizotinib -0.033 | [1] -0.007 | duvelisib 0.006 | gandotinib -0.034 | tozasertib -0.024 | doramapimod 0.005 | bafetinib -0.044 | [2] 0.027 | nilotinib -0.042 | [3] 0.023 | dasatinib 0.046 | [4] 0.067 | [5] -0.012 | quisinostat -0.035 | tipifarnib 0.027 | [6] 0.031 | [7] 0 | [8] -0.016

DNPEP (UniProt Q9ULA0)
inactive: lapatinib -0.007 | pictilisib -0.017 | crizotinib 0.018 | [1] -0.009 | duvelisib 0.023 | gandotinib 0.021 | tozasertib 0.002 | doramapimod -0.029 | bafetinib -0.005 | [2] -0.031 | nilotinib 0.011 | [3] -0.015 | dasatinib 0.003 | [4] 0.001 | [5] -0.016 | quisinostat -0.015 | tipifarnib -0.018 | [6] -0.003 | [7] -0.026 | [8] 0.005
